{
  "sequences": {"note": "Amino acid sequences for entries named in this document (tags omitted). A change or cut given only in a name is not applied to a line headed by its entry.", "UniProt P18054": "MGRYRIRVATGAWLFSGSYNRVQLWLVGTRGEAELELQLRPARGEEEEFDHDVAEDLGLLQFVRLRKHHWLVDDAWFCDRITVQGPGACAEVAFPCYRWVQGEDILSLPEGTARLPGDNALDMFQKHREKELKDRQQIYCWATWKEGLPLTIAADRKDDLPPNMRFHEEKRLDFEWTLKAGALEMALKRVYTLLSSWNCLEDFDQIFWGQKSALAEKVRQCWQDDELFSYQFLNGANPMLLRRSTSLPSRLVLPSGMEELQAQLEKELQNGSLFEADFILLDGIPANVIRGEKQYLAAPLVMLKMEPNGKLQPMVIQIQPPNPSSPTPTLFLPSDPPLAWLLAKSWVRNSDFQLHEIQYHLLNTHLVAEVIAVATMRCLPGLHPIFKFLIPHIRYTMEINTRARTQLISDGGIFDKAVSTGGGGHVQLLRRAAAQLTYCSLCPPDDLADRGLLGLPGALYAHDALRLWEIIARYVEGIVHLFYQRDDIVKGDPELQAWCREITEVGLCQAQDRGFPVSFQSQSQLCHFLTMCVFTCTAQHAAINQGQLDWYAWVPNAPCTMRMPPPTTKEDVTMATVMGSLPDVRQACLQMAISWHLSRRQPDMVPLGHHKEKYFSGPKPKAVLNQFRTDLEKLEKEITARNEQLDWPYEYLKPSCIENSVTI"},
  "source": "PubChem BioAssay AID1671190",
  "about": "(National Center for Advancing Translational Sciences (NCATS), 2021)",
  "note": "Out of some 580,000 compounds screened, about 6,100 (1.1%) were called active. Inconclusive means that the source gave no clear call. Such entries were picked first, then a sample of the others. Calls follow the shape of the dose curve; as a rule, active = well fitted inhibition curve with a large enough effect; inconclusive = small, poorly fitted or top-dose-only effect, or another doubt; inactive = no such curve, though single readings can be large or run the other way. Potencies beside an inconclusive call are fits to weak or partial responses and may not hold up. % is scaled to controls: 0 for no effect and ±100 for the full control effect; potency is read from the fitted curve at half-maximal effect.",
  "data": [
    {"molecular_target": "Polyunsaturated fatty acid lipoxygenase ALOX12 (Homo sapiens) (UniProt P18054)", "test": "Primary qHTS assay for inhibitors of human arachidonate 12S-lipoxygenase (ALOX12): Round 2", "settings": "purified 12hLO, xylenol orange hydroperoxide absorbance; activity change, negative = inhibition: at 108 µM (top of the series) unless noted", "method_in_brief": "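Hydroperoxide product was detected by ferrous iron/xylenol orange as the 573 to 405 nm absorbance ratio. Arachidonic acid at 40 uM (final) was turned over for 30 min at room temperature by 150 nM human 12hLO, pH 7.0 Hepes buffer, after 15 min compound preincubation.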", "values": [
      {"smiles": "CCO[C@H]1OC(C(=O)O)=C[C@@H](c2cn(C(C)=O)c3ccccc23)[C@@H]1CCCO", "Potency": "inactive"},
      {"smiles": "Cc1ccc(C)c(NC(=O)C(Cc2ccccc2)N2Cc3ccccc3C2=O)c1", "note": "(configuration not stated)", "Potency": "inconclusive: 141 µM [inhibitor, single point]"},
      {"smiles": "Cc1ccc(CCNc2ncnc3onc(C)c23)cc1", "Potency": "inactive"},
      {"smiles": "CC(=O)c1cc(C#N)c(SCc2ccncc2)nc1C", "Potency": "inconclusive: 31.6 µM [inhibitor, partial curve, poor fit]"},
      {"smiles": "CC1CCN(S(=O)(=O)c2cn(CC(=O)Nc3ccc(F)cc3Cl)cn2)CC1", "Potency": "inconclusive: 44.7 µM [inhibitor, partial curve, poor fit]"},
      {"smiles": "CCCCNc1ccc2c(c1)OC[C@@H](C)NS2(=O)=O", "Potency": "inconclusive: 31.6 µM [inhibitor, partial curve, poor fit]"},
      {"smiles": "COc1cc(Cl)c(C)cc1NC(=O)COC(=O)C(NS(=O)(=O)c1ccc(Cl)cc1)C(C)O", "note": "(configuration not stated)", "Potency": "inconclusive: 79.4 µM [inhibitor, partial curve, poor fit]"},
      {"smiles": "CC(=O)Nc1ccc(C=NNc2ccc([N+](=O)[O-])cc2S(=O)(=O)Nc2ccccc2C(=O)O)cc1", "Potency": "inconclusive: 112 µM [inhibitor, single point]"},
      {"smiles": "CC1CCCN(c2nc3ccccc3nc2NS(=O)(=O)c2ccccc2)C1", "note": "(configuration not stated)", "Potency": "inactive"},
      {"smiles": "Cc1cccc(C)c1OCCCN1CCCC1", "Potency": "inconclusive: 1.58 µM [inhibitor, partial curve, poor fit]"},
      {"smiles": "CN(C)c1ccc(-c2nccc(NCc3cccs3)n2)cc1", "Potency": "inconclusive: 17.8 µM [inhibitor, partial curve, poor fit]"},
      {"smiles": "COc1cccc(C(=O)Nc2nc3c(c(=O)[nH]2)CCCC3)c1", "Potency": "inconclusive: 50.1 µM [inhibitor, partial curve, poor fit]"},
      {"smiles": "O=C(NCCc1cccnc1)c1cccc(Cl)c1Cl", "Potency": "inactive"},
      {"smiles": "C/C(=N/NC(=O)C1CC1)c1ccc(C)cc1", "Potency": "inconclusive: 112 µM [inhibitor, single point]"},
      {"smiles": "OC(CSc1c(Cl)cccc1Cl)CN1CCN(c2ccccc2F)CC1", "note": "(configuration not stated)", "Potency": "inconclusive: 50.1 µM [inhibitor, partial curve, poor fit]"},
      {"smiles": "CSc1ccc(/C=C2\\CCc3ccccc3C2=O)cc1", "Potency": "inconclusive: 1.26 µM [inhibitor, partial curve, poor fit]"},
      {"smiles": "Cc1ccc(Oc2nc(-c3ccccn3)nc3ccccc23)cc1", "Potency": "inconclusive: 56.2 µM [inhibitor, partial curve, poor fit]"},
      {"smiles": "Cc1ccccc1NC(=O)c1sc2nc(N3CCOCC3)c3c(c2c1N)CCCC3", "Potency": "inconclusive: 35.5 µM [inhibitor, partial curve, poor fit]"},
      {"smiles": "COC(=O)c1cc(Oc2nc3ccccc3o2)cc(C(=O)OC)c1", "Potency": "inactive"},
      {"smiles": "Cc1cc2c(cc1S(=O)(=O)N(C)CC(=O)Nc1cccc(C#N)c1)OCC(=O)N2", "Potency": "inconclusive: 141 µM [inhibitor, partial curve, poor fit]"},
      {"smiles": "COc1ccc(NC(=O)c2cccc(NC(=O)C(C)C)c2)c([N+](=O)[O-])c1", "Potency": "inactive"},
      {"smiles": "Cc1ccccc1NC(=S)N1CCN(c2ccccc2C)CC1", "Potency": "inactive"},
      {"smiles": "COc1ccc(N2CCCC2)c(NC(=O)COc2ccccc2)c1", "Potency": "inactive"},
      {"smiles": "Cc1ccc(NC(=O)CN(C)C(=O)COC(=O)CNS(=O)(=O)c2ccc(F)c(F)c2F)cc1", "Potency": "inconclusive: 39.8 µM [inhibitor, partial curve, poor fit]"},
      {"smiles": "CCCc1cc(O)c2c(C)cc(=O)oc2c1", "Potency": "inconclusive: 126 µM [inhibitor, partial curve, poor fit]"},
      {"smiles": "Cc1ccc(C)c(NC(=O)N2CCC(N3CCN(Cc4ccc(F)cc4)C(=O)C3=O)CC2)c1", "Potency": "inconclusive: 158 µM [inhibitor, partial curve, poor fit]"},
      {"smiles": "O=C(Nc1nccs1)c1ccc(F)c(S(=O)(=O)N2CCOCC2)c1", "Potency": "inconclusive: 2 µM [inhibitor, partial curve, poor fit]"},
      {"smiles": "NS(=O)(=O)c1ccc(-c2ccc(/C=C3\\SC(=O)NC3=O)o2)cc1", "Potency": "inconclusive: 44.7 µM [inhibitor, partial curve, poor fit]"},
      {"smiles": "CCOC(=O)c1c(NC(=O)C(C)C)sc(Cc2ccc3c(c2)OCO3)c1C", "Potency": "inactive"},
      {"smiles": "CCCC(=O)N1CCC(Oc2cnc3c(ccn3-c3cncnc3)c2)CC1", "Potency": "inconclusive: 1.58 µM [inhibitor, full curve, poor fit]"},
      {"smiles": "O=C(COc1cc2oc(=O)cc(-c3ccccc3)c2cc1Cl)NCCCO", "Potency": "inconclusive: 89.1 µM [inhibitor, single point]"},
      {"smiles": "O=C(NN1C(=O)/C(=C/C=C/c2ccccc2)SC1=S)c1ccncc1", "Potency": "inconclusive: 44.7 µM [inhibitor, partial curve, poor fit]"},
      {"smiles": "CC1(C)Cc2nc3oc4c(=S)nc[nH]c4c3cc2CO1", "Potency": "inconclusive: 56.2 µM [inhibitor, full curve, poor fit]"},
      {"smiles": "COC(=O)C1=C(C)NC(=O)/C1=C\\c1ccco1", "Potency": "inconclusive: 79.4 µM [inhibitor, single point]"},
      {"smiles": "CCOCCCn1c(SCC(=O)NCCCOC)nc2c(sc3ccccc32)c1=O", "Potency": "inactive"},
      {"smiles": "CCOC(=O)c1c(C)[nH]c(C(=O)C(C)OC(=O)c2ccc(NC(=O)CC#N)cc2)c1C", "note": "(configuration not stated)", "Potency": "inconclusive: 100 µM [inhibitor, partial curve, poor fit]"},
      {"smiles": "CC(C)OC(=O)Nc1ccc2c(c1)N(C(=O)CCN(C)C)c1ccccc1CC2", "Potency": "inconclusive: 39.8 µM [inhibitor, partial curve, poor fit]"},
      {"smiles": "CC(C)CCC[C@@H](C)[C@@H]1CC[C@H]2C3=CC=C4CC(O)CC[C@]4(C)[C@H]3CC[C@@]21C", "note": "(some centres not stated)", "Potency": "inconclusive: 100 µM [inhibitor, single point]"},
      {"smiles": "O=C(CN(Cc1ccc(F)cc1)C(=O)c1csnn1)NCc1ccccc1", "Potency": "inactive"},
      {"smiles": "O=C(O)CCCn1cc(NC(=O)c2cc(F)c(F)cc2Cl)cn1", "Potency": "inactive"},
      {"smiles": "CC(Sc1nnc(N)s1)C(=O)NNC(=O)c1cccc(Cl)c1", "note": "(configuration not stated)", "Potency": "inactive"},
      {"smiles": "CCOCCCNC(=O)c1c[nH]c2ccc(S(=O)(=O)Nc3cccc(Cl)c3C)cc2c1=O", "Potency": "inconclusive: 44.7 µM [inhibitor, partial curve, poor fit]"},
      {"smiles": "NC(=O)[C@@H]1CCCNc2c(F)cc([N+](=O)[O-])cc2C(=O)N[C@@H](CO)C(=O)N[C@@H](Cc2ccc(O)cc2)C(=O)N1", "Potency": "inconclusive: 70.8 µM [inhibitor, partial curve, poor fit]"},
      {"smiles": "COc1ccc(NC(=O)C2CCC2)c2cccnc12", "Potency": "inactive"},
      {"smiles": "O=C(C1COc2ccccc2O1)N1CCc2ccccc21", "note": "(configuration not stated)", "Potency": "inconclusive: 44.7 µM [inhibitor, partial curve]"},
      {"smiles": "Cc1nn(Cc2ccc(F)cc2)c(C)c1NC(=O)c1cc(-c2ccco2)on1", "Potency": "inactive"},
      {"smiles": "Cc1cccc(CN2CCSCC2)c1", "Potency": "inconclusive: 0.282 µM [inhibitor, full curve, poor fit]"},
      {"smiles": "CCOc1ccccc1Oc1coc2cc(OCc3ccc(OC)cc3)ccc2c1=O", "Potency": "inactive"},
      {"smiles": "Cc1c(CC(=O)NC2CC2)c2c(n1Cc1ccc(F)cc1)CCCC2=O", "Potency": "inactive"},
      {"smiles": "O=C(NCC(c1cccnc1)N1CCN(Cc2ccccc2)CC1)C(=O)Nc1cccc(F)c1", "note": "(configuration not stated)", "Potency": "inconclusive: 126 µM [inhibitor, partial curve, poor fit]"},
      {"smiles": "CCn1c(C)[n+](Cc2ccccc2)c2ccc(C(=O)OC)cc21", "Potency": "inconclusive: 56.2 µM [inhibitor, partial curve, poor fit]"},
      {"smiles": "O=C(Nc1ccccc1F)N1CC2CCC(C1)N2Cc1ccccc1", "activity change, negative = inhibition": "inconclusive: -31.9% [inhibitor]"},
      {"smiles": "CC(O)CNCCCOc1ccccc1OCc1ccccc1", "note": "(configuration not stated)", "Potency": "inactive"},
      {"smiles": "Cc1cc(C)c2oc(C(=O)N(Cc3cccs3)c3ccccn3)cc(=O)c2c1", "Potency": "inconclusive: 112 µM [inhibitor, single point]"},
      {"smiles": "c1ccc(Cc2nn3c(-c4ccncc4)nnc3s2)cc1", "Potency": "inconclusive: 17.8 µM [inhibitor, full curve, poor fit]"},
      {"smiles": "CC(=O)Nc1ccc2nc(-c3cccc(C)c3)oc2c1", "Potency": "inconclusive: 112 µM [inhibitor, single point]"},
      {"smiles": "CCOC(=O)c1c(-c2ccccc2)csc1NC(=O)COc1ccc2c(C)cc(=O)oc2c1", "Potency": "inactive"},
      {"smiles": "COc1cc(Nc2c(C#N)cnc3cc(OCCCN4CCN(C)CC4)c(OC)cc23)c(Cl)cc1Cl", "Potency": "inconclusive: 54.4 µM [inhibitor, single point]"},
      {"smiles": "O=C(O)c1cccc2c1C(=O)c1ccc(N3CCCC3)cc1S2(=O)=O", "Potency": "inconclusive: 39.8 µM [inhibitor, partial curve]"},
      {"smiles": "OCCCn1c(-c2ccccc2)n[nH]c1=S", "Potency": "inconclusive: 31.6 µM [inhibitor, single point]"},
      {"smiles": "Nc1cc(-c2ccc(Br)cc2)nn1Cc1ccccc1", "Potency": "inactive"},
      {"smiles": "O=C(O)/C=C/c1cn(Cc2ccccc2)nc1-c1ccccc1", "Potency": "inactive"},
      {"smiles": "CCOC(=O)COc1ccc2c(=O)c(Oc3ccc(Br)cc3)c(C)oc2c1", "Potency": "inconclusive: 50.1 µM [inhibitor, single point]"},
      {"smiles": "OCCN1CCN(CC(O)COc2ccc3ccccc3c2)CC1", "note": "(configuration not stated)", "Potency": "inconclusive: 20 µM [inhibitor, partial curve, poor fit]"},
      {"smiles": "COc1ccc(N(C(=O)CNC(=O)c2ccco2)C(C(=O)NCC2CCCO2)c2ccccc2)cc1OC", "note": "(configuration not stated)", "Potency": "inconclusive: 112 µM [inhibitor, partial curve, poor fit]"},
      {"smiles": "CCC(=O)Nc1c(-c2cc(=O)oc3ccc(Cl)cc23)oc2ccccc12", "Potency": "inconclusive: 89.1 µM [inhibitor, single point]"},
      {"smiles": "O=C(Cc1ccc2ccccc2c1)NCCc1ccccn1", "Potency": "inactive"}
    ]}
  ]
}
